Assay results from PubChem BioAssay AID540360 (National Center for Advancing Translational Sciences (NCATS), 2011).
This list was built around the results that the source calls inconclusive (neither active nor inactive); the mix of calls is not that of the screen. Potencies beside an inconclusive call are fits to weak or partial responses and may not hold up. Active and inactive are the calls of the source. Calls follow the shape of the dose curve; as a rule, active = well fitted inhibition curve with a large enough effect; inconclusive = small, poorly fitted or top-dose-only effect; inactive = no such curve, though single readings can be large or run the other way.

test system: 6-phosphofructokinase (Trypanosoma brucei); assay: Confirmatory Assay to Find Inhibitors of T. brucei phosphofructokinase: probe SAR; conditions: recombinant T. brucei PFK, ADP-Glo luminescence; series mostly up to 57.5 µM; activity change, negative = inhibition: at the top concentration
Text: NIH Molecular Libraries Probe Production Network [MLPCN] NIH Chemical Genomics Center [NCGC] Grant: 1 R03 MH092153-01 PI Name: Malcolm Walkinshaw, University of Edinburgh NCGC Assay Overview: Various species of the protozoan family Trypanosomatidae are responsible for a range of serious human diseases in tropical and subtropical areas of the world. […] Many of the disorders caused by trypanosomatids are fatal if left untreated, but most currently used drugs are inefficient and toxic. […] Oxidative metabolism involving the mitochondrial tricarboxylic acid cycle and oxidative phosphorylation are repressed in these parasites, and recent RNA interference (RNAi) experiments have shown that even partial depletion of certain individual glycolytic enzymes can lead to the death of cultured parasites. One such glycolytic enzyme, phosphofructokinase (PFK), catalyzes the formation of fructose-1,6-bisphosphate (F1,6BP) and ADP from fructose-6-phosphate (F6P) and ATP, and in many metabolic circumstances makes an important contribution to the control of flux through the glycolytic pathway. As a specific glycolytic target, PFK is particularly attractive as it catalyzes the first irreversible step in glycolysis, and structural and kinetic studies have shown very substantial and essential differences from corresponding host enzymes, allowing for the discovery of parasite-selective inhibitors. The goal of this screen is to find small-molecule inhibitors of T. brucei PFK using a biochemical assay that measures PFK activity as a function of ADP production. A luminescence-based assay for T. brucei PFK activity has been developed which uses luciferase to detect production of ADP. Traditional luciferase-based nucleotide detection reagents rely on ATP production as a direct substrate for the luciferase reaction; however, PFK catalyzes the transfer of a phosphate from ATP to F6P, resulting in the net depletion of ATP. To directly measure the ADP product of the PFK reaction, we used the ADP-Glo detection kit (Promega), which utilizes two separate reactions to 1) deplete all remaining uncatalyzed ATP and 2) convert all remaining ADP to ATP, which is then detected through a traditional luciferase-coupled reaction. Compounds were screened as a concentration-titration series that ranged from 57 uM to 0.3 nM.
NCGC Assay Protocol Summary: NCGC Assay Protocol Summary: Substrate buffer was dispensed into white, solid 1536-well plates at 3uL/well in 0.1M triethanolamine (TEA) buffer, pH 8.0, containing final concentrations of 5 mM MgCl2, 0.01% Tween20, 0.5 mM fructose-6-phosphate (F6P) and 0.1mM ATP. Then, 23 nL of compounds or DMSO were delivered to each well using a pin tool. One uL T. brucei PFK (0.1M TEA, 0.01% Tween20, 0.1% bovine serum albumin (BSA) and 1.25nM PFK, final concentrations) was then dispensed, and plates were incubated at room temperature for 45 min. The luminescent detection reagent, ADP-Glo (Promega), was then added in two steps: the first reagent, ADP-Glo (which converts remaining uncatalyzed ATP), was added at 2.5uL/well and incubated for ten minutes at room temperature, and the second component, Kinase Detection reagent (which converts ADP to ATP as a substrate for luciferase-based luminescence), was added immediately after at 5uL/well, followed by one final ten minute room temperature incubation. The plates were measured on a ViewLux plate reader for luminescent signal using a clear filter with a one second exposure. The %Activity was determined from the corrected luminescence values. As no specific T. brucei PFK inhibitors have been identified in the literature, 1x (1.25nM) and 0x PFK enzyme controls (untreated) were included to normalize %Activity of identified inhibitors; 0x enzyme values corresponded to 100%Activity (full inhibition), while 1x PFK enzyme values were used to normalize 0%Activity (no inhibition). Concentration-response curves were fitted to the signals arising from the resulting luminescence. […]

Question: For `Cc1cc(NS(=O)(=O)c2ccc(NS(=O)(=O)Cc3ccc(Cl)c(Cl)c3)cc2)no1`, which Potency is on record?
Answer: inconclusive: 36.6 µM [inhibitor, partial curve]

Question: How did the Potency turn out when `Cc1cc(NS(=O)(=O)c2ccc(N(C)C(=O)Cc3ccc(Cl)c(Cl)c3)cc2)no1` was run?
Answer: active: 1.63 µM

Question: How did the Potency turn out when `Cc1cc(NS(=O)(=O)C2CCN(C(=O)Cc3ccc(Cl)c(Cl)c3)CC2)no1` was run?
Answer: inconclusive: 32.6 µM [inhibitor, partial curve, poor fit]

Question: For `Cc1cc(NS(=O)(=O)CCNC(=O)Cc2ccc(Cl)c(Cl)c2)no1`, which Potency is on record?
Answer: inconclusive: 32.6 µM [inhibitor, partial curve]

Question: `Cc1cc(NS(=O)(=O)c2ccc(NC(=O)c3ccc(Cl)c(Cl)c3)cc2)no1` was tested. Which Potency did it give?
Answer: inconclusive: 5.8 µM [inhibitor, partial curve, poor fit]

Question: For `O=C(Cc1ccc(Cl)c(Cl)c1)Nc1ccc(S(=O)(=O)Nc2cccc(C(=O)O)c2)cc1`, which Potency is on record?
Answer: active: 0.259 µM

Question: Which Potency does the source give for `Cc1cc(NS(=O)(=O)c2ccc(NC(=O)C(C)(C)c3ccc(Cl)c(Cl)c3)cc2)no1` here?
Answer: inconclusive: 36.6 µM [inhibitor, partial curve]

Question: With `CCOC(=O)c1cccc(NS(=O)(=O)c2ccc(NC(=O)Cc3ccc(Cl)c(Cl)c3)cc2)c1` as the molecule, how does the “activity change, negative = inhibition” value read?
Answer: inactive: -12.9%

Question: Which “activity change, negative = inhibition” value does the source give for `COc1ccc(CC(=O)Nc2ccc(S(=O)(=O)Nc3cc(C)on3)cc2)cc1C` here?
Answer: inactive: -23.2%

Question: How did the Potency turn out when `Cc1cc(NS(=O)(=O)c2ccc(NC(=O)Cc3ccccc3)cc2)no1` was run?
Answer: inconclusive: 36.6 µM [inhibitor, partial curve]

Question: For `Cc1cc(NS(=O)(=O)c2ccc(NC(=O)CCc3ccc(Cl)c(Cl)c3)cc2)no1`, which Potency is on record?
Answer: active: 5.17 µM
